Common to all, as to experiment: glycan array binding signal (z-score within array); higher = stronger binding
Details in all cases: glycan notation: IUPAC condensed, linker removed

For test [1], the target named is Gal(b1-4)GlcNAc(b1-2)Man(a1-6)[Man(a1-3)]Man(b1-4)GlcNAc(b1-4)GlcNAc. The gist of the method:
(§1)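 Columns mapping to the same glycan were averaged after glycan names were converted to IUPAC-condensed notation. The data come from 3228 arrays in the Consortium for Functional Glycomics database, limited to those with an available protein sequence. Binding is reported as a within-array Z-score averaged across arrays of one protein sequence and across linkers.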

In test [2] the target is Gal(b1-4)GlcNAc(b1-2)[Gal(b1-4)GlcNAc(b1-4)]Man(a1-3)[Gal(b1-4)GlcNAc(b1-2)Man(a1-6)]Man(b1-4)GlcNAc(b1-4)GlcNAc. The gist of the method:
as §1

Test [3] addresses Gal(b1-4)GlcNAc(b1-2)[Gal(b1-4)GlcNAc(b1-4)]Man(a1-3)[Gal(b1-4)GlcNAc(b1-2)[Gal(b1-4)GlcNAc(b1-6)]Man(a1-6)]Man(b1-4)GlcNAc(b1-4)GlcNAc. Put shortly:
as §1

For test [4], the target named is Gal(b1-4)GlcNAc(b1-2)[Gal(b1-4)GlcNAc(b1-4)]Man(a1-3)[GlcNAc(b1-4)][Gal(b1-4)GlcNAc(b1-2)Man(a1-6)]Man(b1-4)GlcNAc(b1-4)GlcNAc. The gist of the method:
as §1

Test [5] concerns the target Gal(b1-4)GlcNAc(b1-2)[Gal(b1-4)GlcNAc(b1-4)]Man(a1-3)[GlcNAc(b1-4)][Gal(b1-4)GlcNAc(b1-2)[Gal(b1-4)GlcNAc(b1-6)]Man(a1-6)]Man(b1-4)GlcNAc(b1-4)GlcNAc. The gist of the method: as §1
Test [6] concerns the target Gal(b1-4)GlcNAc(b1-2)[Gal(b1-4)GlcNAc(b1-6)]Man(a1-6)[Gal(b1-4)GlcNAc(b1-2)Man(a1-3)]Man(b1-4)GlcNAc(b1-4)GlcNAc. The gist of the method: as §1
Test [7] has as its target Gal(b1-4)GlcNAc(b1-2)[Gal(b1-4)GlcNAc(b1-6)]Man(a1-6)[Gal(b1-4)GlcNAc(b1-2)Man(a1-3)]Man(b1-4)GlcNAc(b1-4)[Fuc(a1-6)]GlcNAc. Put shortly:
as §1

Test [8] concerns the target Gal(b1-4)GlcNAc(b1-2)[Gal(b1-4)GlcNAc(b1-6)]Man(a1-6)[GlcNAc(b1-4)][Gal(b1-4)GlcNAc(b1-2)Man(a1-3)]Man(b1-4)GlcNAc(b1-4)GlcNAc. Put shortly:
as §1

Test [9] addresses Gal(b1-4)GlcNAc(b1-2)[Gal(b1-4)GlcNAc(b1-6)]Man(a1-6)[GlcNAc(b1-4)][Gal(b1-4)GlcNAc(b1-2)[Gal(b1-4)GlcNAc(b1-4)]Man(a1-3)]Man(b1-4)GlcNAc(b1-4)[Fuc(a1-6)]GlcNAc. The gist of the method: as §1
Test [10] concerns the target Gal(b1-4)GlcNAc(b1-3)Gal(b1-3)GalNAc. Put shortly: as §1
Test [11] concerns the target Gal(b1-4)GlcNAc(b1-3)Gal(b1-3)GlcNAc. Put shortly:
as §1

Test [12] has as its target Gal(b1-4)GlcNAc(b1-3)Gal(b1-4)Glc. The gist of the method: as §1
For test [13], the target named is Gal(b1-4)GlcNAc(b1-3)Gal(b1-4)GlcNAc. Put shortly: as §1
Test [14] has as its target Gal(b1-4)GlcNAc(b1-3)Gal(b1-4)GlcNAc(b1-2)Man(a1-3)[Gal(b1-4)GlcNAc(b1-3)Gal(b1-4)GlcNAc(b1-2)Man(a1-6)]Man(b1-4)GlcNAc(b1-4)GlcNAc. Put shortly:
as §1

In test [15] the target is Gal(b1-4)GlcNAc(b1-3)Gal(b1-4)GlcNAc(b1-2)Man(a1-3)[Gal(b1-4)GlcNAc(b1-3)Gal(b1-4)GlcNAc(b1-2)Man(a1-6)]Man(b1-4)GlcNAc(b1-4)[Fuc(a1-6)]GlcNAc. The gist of the method:
as §1

For test [16], the target named is Gal(b1-4)GlcNAc(b1-3)Gal(b1-4)GlcNAc(b1-2)[Gal(b1-4)GlcNAc(b1-3)Gal(b1-4)GlcNAc(b1-6)]Man(a1-6)[Gal(b1-4)GlcNAc(b1-3)Gal(b1-4)GlcNAc(b1-2)Man(a1-3)]Man(b1-4)GlcNAc(b1-4)GlcNAc. Put shortly:
as §1

The target in test [17] is Gal(b1-4)GlcNAc(b1-3)Gal(b1-4)GlcNAc(b1-2)[Gal(b1-4)GlcNAc(b1-3)Gal(b1-4)GlcNAc(b1-6)]Man(a1-6)[Gal(b1-4)GlcNAc(b1-3)Gal(b1-4)GlcNAc(b1-2)Man(a1-3)]Man(b1-4)GlcNAc(b1-4)[Fuc(a1-6)]GlcNAc. Put shortly:
as §1

Test [18] addresses Gal(b1-4)GlcNAc(b1-3)Gal(b1-4)GlcNAc(b1-3)Gal(b1-4)GlcNAc. The gist of the method:
as §1

The target in test [19] is Gal(b1-4)GlcNAc(b1-3)Gal(b1-4)GlcNAc(b1-3)Gal(b1-4)GlcNAc(b1-2)Man(a1-3)[Gal(b1-4)GlcNAc(b1-3)Gal(b1-4)GlcNAc(b1-3)Gal(b1-4)GlcNAc(b1-2)Man(a1-6)]Man(b1-4)GlcNAc(b1-4)GlcNAc. Put shortly:
as §1

The target of test [20] is Gal(b1-4)GlcNAc(b1-3)Gal(b1-4)GlcNAc(b1-3)Gal(b1-4)GlcNAc(b1-2)Man(a1-3)[Gal(b1-4)GlcNAc(b1-3)Gal(b1-4)GlcNAc(b1-3)Gal(b1-4)GlcNAc(b1-2)Man(a1-6)]Man(b1-4)GlcNAc(b1-4)[Fuc(a1-6)]GlcNAc. The gist of the method: as §1
Test [21] has as its target Gal(b1-4)GlcNAc(b1-3)Gal(b1-4)GlcNAc(b1-3)Gal(b1-4)GlcNAc(b1-2)[Gal(b1-4)GlcNAc(b1-3)Gal(b1-4)GlcNAc(b1-3)Gal(b1-4)GlcNAc(b1-6)]Man(a1-6)[Gal(b1-4)GlcNAc(b1-3)Gal(b1-4)GlcNAc(b1-3)Gal(b1-4)GlcNAc(b1-2)Man(a1-3)]Man(b1-4)GlcNAc(b1-4)[Fuc(a1-6)]GlcNAc. Put shortly: as §1
Test [22] deals with Gal(b1-4)GlcNAc(b1-3)Gal(b1-4)GlcNAc(b1-3)Gal(b1-4)GlcNAc(b1-3)Gal(b1-4)GlcNAc(b1-2)Man(a1-3)[Gal(b1-4)GlcNAc(b1-3)Gal(b1-4)GlcNAc(b1-3)Gal(b1-4)GlcNAc(b1-3)Gal(b1-4)GlcNAc(b1-2)Man(a1-6)]Man(b1-4)GlcNAc(b1-4)GlcNAc. The gist of the method:
as §1

The other results are listed elsewhere or left out.

B1: Mermaid1 (Stilbonema majum) (protein)
chain: MGSSHHHHHHSSGLVPRGSHMAASGWLRSPQGTVVKLYRRSLSWSKADEFCKDVDGRLVVDRTADMHLFLIKNVLKEKKSRVWVGLRRTAPHSRTWIWSDGTRQNEDDLDANLWLRDEPNDAAGEEECALFMYSPWEKAWGLNDYLCRGGCRSYQFICEKWIR
Regarding B1, the “glycan array binding signal (z-score)” value in [1] is -0.705; in test [2], 0.823; in test [3], -0.739; in [4] it was -0.873; in test [5], -1.01; in [6], -0.567. For the same molecule, the “glycan array binding signal (z-score)” value in test [7] was -0.512; in test [8], 0.087; in [9] it was -0.706; in test [10], 0.406; in [11] it was -0.151; in test [12], -0.388. For the same molecule, the “glycan array binding signal (z-score)” value was -0.212 in [13]; 0.312 in test [14]; 0.945 in [15]; 4.04 in [16]; 0.016 in test [17]; -0.531 in [18]. Further, the “glycan array binding signal (z-score)” value in test [19] is -0.367; in test [20], 1.37; in test [21] it was 0.548; in [22], 0.856.

The values above are taken from the supplement of paper PMC8728848.
